The test addresses T1, TRIM64 (human) (UniProt A6NGJ6).
T1 sequence: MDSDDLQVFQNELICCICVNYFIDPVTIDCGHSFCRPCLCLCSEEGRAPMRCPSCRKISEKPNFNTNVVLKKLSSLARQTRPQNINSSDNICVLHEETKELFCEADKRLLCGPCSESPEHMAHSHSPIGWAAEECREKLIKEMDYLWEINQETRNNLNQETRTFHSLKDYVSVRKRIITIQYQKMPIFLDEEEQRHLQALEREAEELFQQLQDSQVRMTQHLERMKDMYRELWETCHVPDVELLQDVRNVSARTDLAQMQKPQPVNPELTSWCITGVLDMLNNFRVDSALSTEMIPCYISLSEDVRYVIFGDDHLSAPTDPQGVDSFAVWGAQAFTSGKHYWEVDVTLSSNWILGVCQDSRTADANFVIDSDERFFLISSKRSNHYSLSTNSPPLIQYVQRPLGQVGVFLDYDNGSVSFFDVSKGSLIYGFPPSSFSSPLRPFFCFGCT
Description: co-IP; cell lysates in RIPA buffer (1 mM MgCl2, 100 mM NaCl, 1 mM DTT); antibodies against IκBα, TRIM64 or control IgG with protein A/G magnetic beads, 120 min at 4 °C; immunoblot.

Protein sequences, listed by entry. Tags and fused reporters are not part of them.
UniProt P25963: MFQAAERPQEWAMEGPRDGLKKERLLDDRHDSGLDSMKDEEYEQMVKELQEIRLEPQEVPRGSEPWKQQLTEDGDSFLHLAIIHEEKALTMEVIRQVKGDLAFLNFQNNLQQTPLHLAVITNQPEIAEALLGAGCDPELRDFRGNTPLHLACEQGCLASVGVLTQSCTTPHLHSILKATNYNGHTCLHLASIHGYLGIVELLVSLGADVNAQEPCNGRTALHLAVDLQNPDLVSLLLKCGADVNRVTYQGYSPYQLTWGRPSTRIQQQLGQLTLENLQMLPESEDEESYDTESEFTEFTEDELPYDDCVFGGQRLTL

Results are given in words; binding and its absence hold for the method and conditions named. Binding seen in cells or lysates may run through a third protein. Some results given as binding are weak or reduced against the parent protein; the word gives no strength.

Turning to IκBα (from UniProt P25963 1-317), the binding entry is given as “binds”.

(Values after PMC10406714.)
